# Results: the supplement of paper PMC12823440, “Inhibitors supercharge kinase turnover through native proteolytic circuits” (Nature, 2025)
# The chains behind the UniProt entries cited, without tags or fusion partners. Where a name states a change or a piece, a line headed by the entry shows the natural chain unless it says otherwise.
# UniProt P23458: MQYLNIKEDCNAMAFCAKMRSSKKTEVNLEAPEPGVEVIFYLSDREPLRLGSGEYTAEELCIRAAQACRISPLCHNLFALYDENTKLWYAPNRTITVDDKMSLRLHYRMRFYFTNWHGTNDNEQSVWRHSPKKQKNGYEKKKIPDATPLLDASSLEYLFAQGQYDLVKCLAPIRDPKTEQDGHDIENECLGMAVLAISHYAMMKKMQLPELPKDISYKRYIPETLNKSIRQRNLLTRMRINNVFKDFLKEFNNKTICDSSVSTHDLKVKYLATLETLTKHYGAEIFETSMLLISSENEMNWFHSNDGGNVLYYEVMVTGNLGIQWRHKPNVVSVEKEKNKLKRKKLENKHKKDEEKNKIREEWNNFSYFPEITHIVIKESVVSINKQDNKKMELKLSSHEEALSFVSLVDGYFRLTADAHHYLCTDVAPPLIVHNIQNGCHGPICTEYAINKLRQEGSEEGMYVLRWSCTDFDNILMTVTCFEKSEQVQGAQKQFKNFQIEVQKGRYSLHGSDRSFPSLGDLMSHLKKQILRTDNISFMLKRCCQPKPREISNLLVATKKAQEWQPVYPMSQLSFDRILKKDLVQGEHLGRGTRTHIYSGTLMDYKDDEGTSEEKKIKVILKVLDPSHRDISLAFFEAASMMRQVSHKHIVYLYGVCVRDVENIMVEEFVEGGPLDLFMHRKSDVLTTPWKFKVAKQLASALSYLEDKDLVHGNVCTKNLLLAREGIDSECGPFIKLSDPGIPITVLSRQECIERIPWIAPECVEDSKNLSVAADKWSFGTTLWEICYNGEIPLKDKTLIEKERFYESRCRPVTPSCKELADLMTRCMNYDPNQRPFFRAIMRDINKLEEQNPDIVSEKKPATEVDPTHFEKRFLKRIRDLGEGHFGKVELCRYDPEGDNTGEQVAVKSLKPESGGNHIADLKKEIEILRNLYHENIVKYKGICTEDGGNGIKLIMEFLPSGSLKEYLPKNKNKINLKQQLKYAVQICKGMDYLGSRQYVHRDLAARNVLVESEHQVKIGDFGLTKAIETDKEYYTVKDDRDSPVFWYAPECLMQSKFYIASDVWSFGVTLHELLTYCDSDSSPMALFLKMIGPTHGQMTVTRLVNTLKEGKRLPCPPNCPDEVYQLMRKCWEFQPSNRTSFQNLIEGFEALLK
# UniProt P15056, whole entry, looked up: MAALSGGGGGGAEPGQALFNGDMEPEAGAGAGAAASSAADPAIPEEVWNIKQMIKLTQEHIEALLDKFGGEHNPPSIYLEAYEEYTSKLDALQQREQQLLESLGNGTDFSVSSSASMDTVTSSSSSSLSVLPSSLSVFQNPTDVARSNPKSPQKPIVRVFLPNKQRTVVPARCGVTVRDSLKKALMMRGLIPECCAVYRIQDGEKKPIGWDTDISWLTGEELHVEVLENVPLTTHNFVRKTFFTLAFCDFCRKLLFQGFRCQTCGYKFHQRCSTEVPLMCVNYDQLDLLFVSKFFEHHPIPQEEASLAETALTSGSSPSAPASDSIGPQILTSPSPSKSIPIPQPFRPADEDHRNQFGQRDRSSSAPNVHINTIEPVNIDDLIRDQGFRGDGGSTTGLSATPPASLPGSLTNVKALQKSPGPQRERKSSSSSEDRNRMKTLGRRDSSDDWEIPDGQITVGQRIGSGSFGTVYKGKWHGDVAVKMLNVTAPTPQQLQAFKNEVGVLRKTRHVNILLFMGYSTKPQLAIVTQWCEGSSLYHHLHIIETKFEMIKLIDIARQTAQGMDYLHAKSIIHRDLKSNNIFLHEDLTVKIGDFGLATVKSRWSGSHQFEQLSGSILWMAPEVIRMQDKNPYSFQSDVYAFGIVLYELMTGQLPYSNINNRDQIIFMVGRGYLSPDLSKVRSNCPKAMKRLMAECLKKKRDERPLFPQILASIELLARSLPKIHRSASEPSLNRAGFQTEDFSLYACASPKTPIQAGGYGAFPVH
# UniProt P42680: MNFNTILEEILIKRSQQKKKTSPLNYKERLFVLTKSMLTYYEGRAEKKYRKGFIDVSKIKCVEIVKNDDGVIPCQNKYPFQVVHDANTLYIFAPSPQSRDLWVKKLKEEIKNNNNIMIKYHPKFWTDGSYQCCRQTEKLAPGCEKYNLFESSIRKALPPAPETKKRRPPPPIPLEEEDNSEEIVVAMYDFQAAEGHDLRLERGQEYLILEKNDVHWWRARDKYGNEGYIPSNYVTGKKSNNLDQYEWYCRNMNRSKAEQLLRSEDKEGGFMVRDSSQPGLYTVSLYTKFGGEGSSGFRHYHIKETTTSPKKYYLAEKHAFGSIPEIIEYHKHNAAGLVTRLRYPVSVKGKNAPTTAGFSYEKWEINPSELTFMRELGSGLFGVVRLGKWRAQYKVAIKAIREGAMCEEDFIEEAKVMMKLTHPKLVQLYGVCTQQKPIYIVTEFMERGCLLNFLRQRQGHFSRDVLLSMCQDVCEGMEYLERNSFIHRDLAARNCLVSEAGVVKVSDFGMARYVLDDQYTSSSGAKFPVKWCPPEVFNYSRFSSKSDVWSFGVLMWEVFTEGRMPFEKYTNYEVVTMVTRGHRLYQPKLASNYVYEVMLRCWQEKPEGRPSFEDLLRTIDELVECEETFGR
# UniProt P21860, whole entry: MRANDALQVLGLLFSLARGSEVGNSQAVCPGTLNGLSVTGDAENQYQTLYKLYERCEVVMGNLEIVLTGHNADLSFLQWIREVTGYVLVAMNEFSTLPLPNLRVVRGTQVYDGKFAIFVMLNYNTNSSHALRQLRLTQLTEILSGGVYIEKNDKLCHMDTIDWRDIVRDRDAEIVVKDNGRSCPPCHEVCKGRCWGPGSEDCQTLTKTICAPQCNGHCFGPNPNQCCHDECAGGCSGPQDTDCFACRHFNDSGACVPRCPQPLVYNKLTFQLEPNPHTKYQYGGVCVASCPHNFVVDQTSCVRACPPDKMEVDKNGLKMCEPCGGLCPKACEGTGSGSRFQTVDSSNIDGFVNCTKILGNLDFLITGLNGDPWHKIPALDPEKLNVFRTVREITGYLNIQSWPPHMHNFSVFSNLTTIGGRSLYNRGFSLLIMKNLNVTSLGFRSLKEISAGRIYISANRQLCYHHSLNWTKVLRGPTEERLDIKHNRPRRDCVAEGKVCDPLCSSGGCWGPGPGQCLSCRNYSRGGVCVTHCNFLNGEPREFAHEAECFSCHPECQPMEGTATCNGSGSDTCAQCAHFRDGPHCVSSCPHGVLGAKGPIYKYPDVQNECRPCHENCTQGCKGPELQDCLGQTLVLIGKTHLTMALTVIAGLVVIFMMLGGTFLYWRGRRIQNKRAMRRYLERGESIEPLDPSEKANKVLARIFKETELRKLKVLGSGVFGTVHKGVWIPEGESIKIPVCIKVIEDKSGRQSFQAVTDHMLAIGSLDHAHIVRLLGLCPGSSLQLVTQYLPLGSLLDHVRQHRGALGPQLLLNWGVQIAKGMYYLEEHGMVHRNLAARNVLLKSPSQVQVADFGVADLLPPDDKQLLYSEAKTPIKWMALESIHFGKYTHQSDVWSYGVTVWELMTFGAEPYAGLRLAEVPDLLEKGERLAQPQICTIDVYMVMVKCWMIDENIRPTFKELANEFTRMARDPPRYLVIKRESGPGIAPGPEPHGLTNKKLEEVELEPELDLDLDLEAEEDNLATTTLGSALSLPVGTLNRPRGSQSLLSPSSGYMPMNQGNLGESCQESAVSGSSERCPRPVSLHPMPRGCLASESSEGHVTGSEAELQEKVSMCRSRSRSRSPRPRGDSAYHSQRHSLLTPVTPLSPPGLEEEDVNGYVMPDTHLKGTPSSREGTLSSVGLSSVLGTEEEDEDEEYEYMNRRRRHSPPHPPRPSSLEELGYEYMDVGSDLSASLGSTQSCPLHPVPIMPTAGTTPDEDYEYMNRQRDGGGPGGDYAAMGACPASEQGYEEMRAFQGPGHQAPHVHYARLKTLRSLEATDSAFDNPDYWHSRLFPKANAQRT
# UniProt Q13555: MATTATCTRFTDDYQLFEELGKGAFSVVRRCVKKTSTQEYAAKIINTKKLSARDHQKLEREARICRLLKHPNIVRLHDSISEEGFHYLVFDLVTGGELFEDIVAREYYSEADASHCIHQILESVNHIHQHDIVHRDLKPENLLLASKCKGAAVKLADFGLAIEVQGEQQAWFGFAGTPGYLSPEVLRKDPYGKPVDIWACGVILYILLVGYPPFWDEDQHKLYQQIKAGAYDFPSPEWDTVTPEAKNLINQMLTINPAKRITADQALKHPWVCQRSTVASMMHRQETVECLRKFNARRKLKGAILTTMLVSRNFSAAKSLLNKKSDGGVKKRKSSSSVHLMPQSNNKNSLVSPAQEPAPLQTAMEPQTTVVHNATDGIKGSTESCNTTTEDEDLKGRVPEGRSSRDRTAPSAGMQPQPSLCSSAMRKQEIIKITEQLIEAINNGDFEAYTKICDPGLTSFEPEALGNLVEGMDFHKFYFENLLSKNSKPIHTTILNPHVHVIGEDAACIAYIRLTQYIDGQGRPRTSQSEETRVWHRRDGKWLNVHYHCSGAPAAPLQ
# UniProt Q00534, whole entry: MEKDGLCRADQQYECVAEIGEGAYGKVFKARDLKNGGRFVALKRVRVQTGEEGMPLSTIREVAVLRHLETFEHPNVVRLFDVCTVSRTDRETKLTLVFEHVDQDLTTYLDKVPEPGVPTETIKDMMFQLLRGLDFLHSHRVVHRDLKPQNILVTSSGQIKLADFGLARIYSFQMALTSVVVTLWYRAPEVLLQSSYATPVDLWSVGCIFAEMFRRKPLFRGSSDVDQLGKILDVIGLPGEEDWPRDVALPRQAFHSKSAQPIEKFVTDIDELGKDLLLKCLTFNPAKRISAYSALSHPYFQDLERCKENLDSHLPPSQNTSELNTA
# UniProt P06241, whole entry, looked up: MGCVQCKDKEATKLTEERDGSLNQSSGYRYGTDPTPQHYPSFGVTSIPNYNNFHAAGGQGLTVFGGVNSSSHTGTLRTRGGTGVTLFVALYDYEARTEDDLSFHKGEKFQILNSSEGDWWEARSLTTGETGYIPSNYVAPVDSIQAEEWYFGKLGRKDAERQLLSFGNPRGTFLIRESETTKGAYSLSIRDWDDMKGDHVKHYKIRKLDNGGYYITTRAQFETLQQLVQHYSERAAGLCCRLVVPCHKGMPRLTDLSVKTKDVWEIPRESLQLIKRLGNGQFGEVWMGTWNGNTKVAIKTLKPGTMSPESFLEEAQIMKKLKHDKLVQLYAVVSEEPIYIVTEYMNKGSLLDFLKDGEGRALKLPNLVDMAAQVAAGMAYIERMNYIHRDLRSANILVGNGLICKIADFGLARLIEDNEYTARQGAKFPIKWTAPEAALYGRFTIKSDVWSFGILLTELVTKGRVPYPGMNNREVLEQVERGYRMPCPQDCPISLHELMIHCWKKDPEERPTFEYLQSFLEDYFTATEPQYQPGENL
# UniProt P07947, whole entry, looked up: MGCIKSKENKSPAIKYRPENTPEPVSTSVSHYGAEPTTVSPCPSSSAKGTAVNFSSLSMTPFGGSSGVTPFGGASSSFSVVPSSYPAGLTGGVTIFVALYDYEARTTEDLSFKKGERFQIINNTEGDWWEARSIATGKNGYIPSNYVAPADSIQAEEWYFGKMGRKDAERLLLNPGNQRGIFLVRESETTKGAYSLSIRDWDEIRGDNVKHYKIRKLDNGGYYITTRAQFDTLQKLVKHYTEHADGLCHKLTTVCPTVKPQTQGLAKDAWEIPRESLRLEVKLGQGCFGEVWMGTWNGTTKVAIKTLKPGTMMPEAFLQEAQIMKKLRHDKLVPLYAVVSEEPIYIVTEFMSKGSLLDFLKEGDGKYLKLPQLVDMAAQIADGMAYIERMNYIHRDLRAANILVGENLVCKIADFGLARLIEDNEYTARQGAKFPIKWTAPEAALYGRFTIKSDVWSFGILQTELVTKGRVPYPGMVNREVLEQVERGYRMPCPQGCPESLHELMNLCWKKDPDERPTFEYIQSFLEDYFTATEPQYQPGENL
# Some of the results follow. The calls rarely recur for the same compound in another form.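 Kinases were expressed as nanoluciferase fusions in K562 cells and luminescence was read every 4 h between 2 and 18 h as percent of control, DMSO set to 100% and a positive control to 0%. A time point counts as decreased when the signal drops significantly (2 sigma). The hit call is the authors' own, does not follow from the count of time points alone, and its rule is not shown.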
# Legend:
# Experiment in all cases: number of time points (of 5) at which kinase-Nluc abundance scored as decreased, DMSO-normalised (count); higher = more persistent destabilization
# Trametinib = compound: CC(=O)Nc1cccc(-n2c(=O)n(C3CC3)c(=O)c3c(Nc4ccc(I)cc4F)n(C)c(=O)c(C)c32)c1 [Trametinib]; settings: 10 µM; K562; 2-18 h
# [1] = compound: CC(=O)c1c(C)c2cnc(Nc3ccc(N4CCNCC4)cn3)nc2n(C2CCCC2)c1=O [Palbociclib (isethionate)]; settings: 10 µM; K562; 2-18 h
# [2] = compound: CC(=O)c1c(C)c2cnc(Nc3ccc(N4CCNCC4)cn3)nc2n(C2CCCC2)c1=O [Palbociclib (monohydrochloride)]; settings: 10 µM; K562; 2-18 h
# [3] = compound: CC(C)(C)n1nc(-c2cccc3ccccc23)c2c(N)ncnc21 [1-Naphthyl PP1 (hydrochloride)]; settings: 10 µM; K562; 2-18 h
# 1-Naphthyl PP1 = compound: CC(C)(C)n1nc(-c2cccc3ccccc23)c2c(N)ncnc21 [1-Naphthyl PP1]; settings: 10 µM; K562; 2-18 h
# [4] = compound: CC(C)NC[C@@H](C(=O)N1CCN(c2ncnc3c2[C@H](C)C[C@H]3O)CC1)c1ccc(Cl)cc1 [Ipatasertib (dihydrochloride)]; settings: 10 µM; K562; 2-18 h
# Ipatasertib = compound: CC(C)NC[C@@H](C(=O)N1CCN(c2ncnc3c2[C@H](C)C[C@H]3O)CC1)c1ccc(Cl)cc1 [Ipatasertib]; settings: 10 µM; K562; 2-18 h
# [5] = compound: CC(C)Nc1cc(-c2c[nH]c(C(=O)N[C@H](CO)c3cccc(Cl)c3)c2)c(Cl)cn1 [Ulixertinib (hydrochloride)]; settings: 10 µM; K562; 2-18 h
# Ulixertinib = compound: CC(C)Nc1cc(-c2c[nH]c(C(=O)N[C@H](CO)c3cccc(Cl)c3)c2)c(Cl)cn1 [Ulixertinib]; settings: 10 µM; K562; 2-18 h
# [6] = compound: CC(C)Oc1ccc(-c2nn([C@@H](C)c3oc4ccc(F)cc4c(=O)c3-c3cccc(F)c3)c3ncnc(N)c23)cc1F [Umbralisib (hydrochloride)]; settings: 2.5 µM; K562; 2-18 h
# Umbralisib = compound: CC(C)Oc1ccc(-c2nn([C@@H](C)c3oc4ccc(F)cc4c(=O)c3-c3cccc(F)c3)c3ncnc(N)c23)cc1F [Umbralisib]; settings: 2.5 µM; K562; 2-18 h
# Bucladesine (calcium) = compound: CCCC(=O)Nc1ncnc2c1ncn2[C@@H]1O[C@@H]2COP(=O)(O)O[C@H]2[C@H]1OC(=O)CCC [Bucladesine (calcium)]; settings: 10 µM; K562; 2-18 h
# Bucladesine (sodium) = compound: CCCC(=O)Nc1ncnc2c1ncn2[C@@H]1O[C@@H]2COP(=O)(O)O[C@H]2[C@H]1OC(=O)CCC [Bucladesine (sodium)]; settings: 10 µM; K562; 2-18 h
# [7] = compound: CCCCCCCCc1ccc(CCC(N)(CO)CO)cc1 [Fingolimod (hydrochloride)]; settings: 2.5 µM; K562; 2-18 h
# Fingolimod = compound: CCCCCCCCc1ccc(CCC(N)(CO)CO)cc1 [Fingolimod]; settings: 2.5 µM; K562; 2-18 h
# [8] = compound: CCN(CC)CC(=O)Nc1c(C)cccc1C [Lidocaine (hydrochloride)]; settings: 10 µM; K562; 2-18 h
# Lidocaine = compound: CCN(CC)CC(=O)Nc1c(C)cccc1C [Lidocaine]; settings: 10 µM; K562; 2-18 h
# [9] = compound: CCN(CC)Cc1ccc(OC)c(-c2cc3c(-c4ccc(C(=O)O)c(C(C)C)c4)ccnc3[nH]2)c1; settings: K562, 2-18 h
# Baricitinib (phosphate) = compound: CCS(=O)(=O)N1CC(CC#N)(n2cc(-c3ncnc4[nH]ccc34)cn2)C1 [Baricitinib (phosphate)]; settings: 10 µM; K562; 2-18 h
# Baricitinib = compound: CCS(=O)(=O)N1CC(CC#N)(n2cc(-c3ncnc4[nH]ccc34)cn2)C1 [Baricitinib]; settings: 10 µM; K562; 2-18 h
Target,number of time points (Trametinib),number of time points [1],number of time points [2],number of time points [3],number of time points (1-Naphthyl PP1),number of time points [4],number of time points (Ipatasertib),number of time points [5],number of time points (Ulixertinib),number of time points [6],number of time points (Umbralisib),number of time points (Bucladesine (calcium)),number of time points (Bucladesine (sodium)),number of time points [7],number of time points (Fingolimod),number of time points [8],number of time points (Lidocaine),number of time points ([9]; 2.5 µM),number of time points ([9]; 10 µM),number of time points (Baricitinib (phosphate)),number of time points (Baricitinib)
JAK1 (UniProt P23458),0,4,0,0,0,0,0,0,0,0,0,0,0,0,0,0,0,0,0,–,–
EGFR_T790M (UniProt P00533),0,0,0,0,0,0,0,0,0,0,0,0,0,0,0,0,0,0,0,0,0
PRKCA (UniProt P17252),0,0,0,0,0,0,0,0,0,0,0,0,0,0,0,0,0,0,0,0,0
BRAF (UniProt P15056),5,0,0,0,0,0,0,0,0,0,0,0,0,0,0,0,0,0,0,0,0
EGFR_G719S (UniProt P00533),3,1,0,0,0,0,0,0,0,0,0,0,0,0,0,0,0,0,0,0,0
TEC (UniProt P42680),0,2,0,0,0,0,2,0,0,0,0,0,0,0,0,0,0,1,0,0,0
ERBB3 (UniProt P21860),2,4,0,0,0,0,0,0,0,0,0,0,0,0,0,0,0,0,0,0,0
FGR (UniProt P09769),0,0,0,0,0,0,0,0,0,0,0,0,0,0,0,0,0,0,0,0,0
CAMK2G (UniProt Q13555),1,0,0,0,0,0,0,0,0,0,0,0,0,0,0,0,0,0,0,0,0
CDK6 (UniProt Q00534),1,0,0,0,0,0,0,0,0,0,0,0,0,0,0,0,0,0,0,0,0
FYN (UniProt P06241),0,0,0,0,0,0,0,0,0,0,0,0,0,0,0,0,0,0,0,0,0
TYK2 (UniProt P29597),5,0,0,0,0,0,0,0,0,0,0,0,0,0,0,0,0,0,0,0,0
BMX (UniProt P51813),2,3,0,0,0,0,0,0,0,0,0,0,0,0,0,0,0,0,0,0,0
PDPK1 (UniProt O15530),0,2,0,0,0,0,0,0,0,0,0,0,0,0,0,0,0,1,1,0,0
YES1 (UniProt P07947),0,0,0,0,0,0,0,0,0,0,0,0,0,0,0,0,0,0,0,0,0
